Source: patent publication US9956304B2, “Contrast agents, methods for preparing contrast agents, and methods of imaging” (GEORGIA STATE UNIVERSITY RESEARCH FOUNDATION, INC., priority 2012, dated 2018)
Some results were stated once for a whole list of compounds, not compound by compound.

Assay: Serum stability (SDS-PAGE, mass spectrum, immuno-blot)
Conditions: 50% human serum, 37 C, Gd complex

B1: ProCA32: parvalbumin-scaffold protein MRI contrast agent with two Gd3+ binding sites; calcium-binding protein variant (S56D, F103W) (protein)
chain: MSMTDLLNAEDIKKAVGAFSATDSFDHKKFFQMVGLKKKSADDVKKVFHMLDKDKDGFIEEDELGFILKGFSPDARDLSAKETKMLMAAGDKDGDGKIGVEEWSTLVAES
modifications: Gd3+ bound; ProCA3
remained intact in serum: up to 72 hours
